A short description of the series: general procedure: solution-phase peptide synthesis; COMU; PyAOP. The settings on record: coupling step.

“Fmoc-MeNle-Arg(Pbf)-Cys(Trt)-Gly-O-2NaphTAG (1)”: the step yield came to 96.5%.

The substance “Fmoc-MeNle-MeNle-Arg(Pbf)-Cys(Trt)-Gly-O-2NaphTAG (1)” came in with a step yield of 99.4%.

(Values after patent publication US20220112233A1 (FUJIFILM CORPORATION, priority 2019, published 2022).)
